Data source: PubChem BioAssay AID504764 (Drosophila RNAi Screening Center, 2011)
The screen tested about 22,000 reagents; below is an unselected part of those with a known target gene and a result. In the full data, 403 (1.9%) were called active. 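Unnormalised raw counts per well; ratio z-scores behind the hit calls and whether each hit raises or lowers signal are not deposited.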 Reagents against one gene are numbered here. Names joined by + are all predicted targets of the reagent. Not stated in the record: the amount of reagent.

Test: 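Genes whose knock-down alters Notch-dependent transcription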 (primary screen)
Cells: Drosophila Kc167 cells
Knock-down reagent: long dsRNA against Drosophila genes
Timing: about 5 days (4 days dsRNA, then 24 h after transfection)
Conditions: transfection of constitutively active membrane-tethered Notch lacking the extracellular domain, read 24 h later
Detection: 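Light from a Notch-responsive E(spl)m3 luciferase reporter under active Notch, with control-promoter and no-Notch reporter wells to normalise; raw counts from paired wells a and b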
Direction: induced reporter light, run 1, well a and induced reporter light, run 1, well b: higher = more light from the Notch target reporter with active Notch; control promoter light, run 1, well a and control promoter light, run 1, well b: higher = more light from the viral control promoter (cell number, transfection, viability); uninduced reporter light, run 1, well a: higher = more light from the Notch target reporter without active Notch
Rule for the call: 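Wells with low control signal or poorly matching duplicates excluded; duplicates averaged; per source plate, z beyond ±2 for induced/control log2 ratio or beyond ±1.8 for induced/uninduced marks a hit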
Meaning of the calls: active = modifier hit (raised or lowered Notch signal); inactive = not a hit

gene,reagent,"induced reporter light, run 1, well a","induced reporter light, run 1, well b","control promoter light, run 1, well a","control promoter light, run 1, well b","uninduced reporter light, run 1, well a",outcome
Pak (GeneID 44039),1,1.07e5,1.22e5,51135,48470,10610,inactive
Hayan (GeneID 32831),1,99790,1.16e5,99285,54545,7900,inactive
Hayan (GeneID 32831),2,,,,,,inactive
CG15605 (GeneID 36933),1,1.37e5,1.11e5,90895,1.14e5,9720,inactive
CG16898 (GeneID 37276),1,1.06e5,1.02e5,1.45e5,1.39e5,12635,inactive
nrv1 (GeneID 33952),1,1.38e5,1.61e5,1.54e5,1.49e5,13242,inactive
CG2533 (GeneID 32110),1,1.16e5,87245,1.02e5,1.28e5,6225,inactive
Ube4A (GeneID 33932),1,2.38e5,2.38e5,1.90e5,2.19e5,17755,inactive
rdhB (GeneID 42614),1,1.68e5,2.25e5,1.91e5,2.72e5,18275,inactive
CG13947 (GeneID 33250),1,1.93e5,1.57e5,1.53e5,1.38e5,13355,inactive
Cbp80 (GeneID 44409),1,73075,61030,52280,64025,3950,inactive
CG14563 (GeneID 40435),1,33525,27575,29490,34975,1640,inactive
Nop56 (GeneID 42633),1,46500,47140,79000,62640,3625,inactive
janA (GeneID 43569),1,1.19e5,1.38e5,1.74e5,1.71e5,9405,inactive
CG31898 (GeneID 319012),1,1.36e5,1.12e5,1.77e5,1.98e5,13145,inactive
tei (GeneID 36521),1,85035,96135,1.45e5,1.29e5,9510,inactive
uzip (GeneID 38002),1,95520,95295,85590,85590,6610,inactive
TotM (GeneID 33764),1,1.62e5,1.18e5,1.74e5,1.77e5,7845,inactive
KaiR1D (GeneID 42473),1,1.71e5,1.69e5,1.89e5,1.93e5,13000,inactive
drd (GeneID 318102),1,1.16e5,1.34e5,1.30e5,1.21e5,18300,inactive
drd (GeneID 318102),2,,,,,,inactive
CG34026 (GeneID 3885569),1,94935,61195,95885,71350,5778,inactive
CG12713 (GeneID 39724),1,1.07e5,1.13e5,87610,76460,9175,inactive
CG17855 (GeneID 34269),1,1.27e5,1.29e5,82290,1.03e5,17675,inactive
CG42241 (retired record) (GeneID 7354372),1,1.50e5,1.50e5,2.87e5,2.79e5,10275,inactive
Tsp42Ej (GeneID 35620),1,1.83e5,1.89e5,1.73e5,1.56e5,13420,inactive
Cyp313a1 (GeneID 41759),1,2.41e5,2.45e5,1.90e5,2.11e5,17135,inactive
CG31974 (GeneID 33174),1,1.60e5,1.39e5,1.13e5,57165,12245,inactive
RNASEK (GeneID 3355016),1,,,,,,inactive
fsd (GeneID 36463),1,1.08e5,1.02e5,1.40e5,1.04e5,10380,inactive
ytr (GeneID 47457),1,2.06e5,2.43e5,1.50e5,1.91e5,13655,inactive
ytr (GeneID 47457),2,,,,,,inactive
CG3609 (GeneID 33421),1,1.15e5,99015,95105,62155,9005,inactive
CG3104 (GeneID 33486),1,1.27e5,1.33e5,1.34e5,1.24e5,9635,inactive
Prosalpha3T (GeneID 43679),1,1.21e5,1.11e5,1.66e5,1.58e5,8670,inactive
CG17646 (GeneID 33354),1,86625,88895,72610,71945,6320,inactive
CG13965 (GeneID 35280),1,63320,56145,63835,47985,2560,inactive
IM33 (GeneID 33592),1,73400,54310,59635,60465,3655,inactive
CG17019 (GeneID 36425),1,1.37e5,1.43e5,1.27e5,1.33e5,12020,inactive
tous (GeneID 37582),1,1.95e5,2.27e5,1.66e5,1.40e5,13400,inactive
IFT54 (GeneID 41739),1,2.21e5,2.10e5,1.87e5,1.88e5,14050,inactive
CG15029 (retired record) (GeneID 32449),1,1.27e5,1.11e5,1.42e5,1.10e5,12755,inactive
CG31546 (GeneID 40691),1,1.35e5,1.10e5,1.03e5,85040,11125,inactive
tud (GeneID 37417),1,50470,45280,53455,62390,2635,inactive
Afg3l2 (GeneID 39922),1,1.18e5,83150,87975,80900,8720,inactive
CG17751 (GeneID 42336),1,1.63e5,1.49e5,1.90e5,1.87e5,10485,inactive
CG17618 (retired record) + CG45049,1,1.93e5,1.59e5,2.21e5,2.19e5,14525,inactive
CG17928 (GeneID 35009),1,1.27e5,1.28e5,1.40e5,1.79e5,11075,inactive
ATPsyndelta (GeneID 31950),1,67655,66725,92280,1.32e5,5432,inactive
spdi (GeneID 31004),1,2.07e5,2.39e5,3.00e5,2.84e5,15835,inactive
spdi (GeneID 31004),2,1.96e5,1.60e5,3.06e5,3.28e5,12790,inactive
CG2157 (GeneID 32018),1,1.17e5,1.37e5,3.26e5,2.05e5,9320,inactive
CG15657 (GeneID 37408),1,50615,56820,49520,73775,3165,inactive
ppk9 (GeneID 37498),1,72210,39870,43955,46585,2565,inactive
ppk9 (GeneID 37498),2,37175,39450,39185,46765,1925,inactive
CG31467 (GeneID 318751),1,1.02e5,81885,1.06e5,70690,7455,inactive
Oatp26F (GeneID 33927),1,1.37e5,1.28e5,1.82e5,1.30e5,7875,inactive
Oatp26F (GeneID 33927),2,2.03e5,1.63e5,2.50e5,1.88e5,14538,inactive
Oatp26F (GeneID 33927),3,2.08e5,1.60e5,2.46e5,2.09e5,12040,inactive
dikar (GeneID 38747),1,74910,78440,34930,10120,8270,active
CG7044 (GeneID 42497),1,2.16e5,1.95e5,2.48e5,2.60e5,17800,inactive
Snm1 (GeneID 40669),1,1.14e5,1.59e5,89860,93390,11110,inactive
Nph (GeneID 43559),1,1.11e5,1.00e5,1.72e5,1.47e5,10595,inactive
CG6443 (GeneID 34477),1,2.15e5,2.66e5,2.12e5,1.74e5,17365,inactive

Individual results from the entries so far:
CG31546 (GeneID 40691), induced reporter light, run 1, well b = 1.10e5
CG15029 (retired record) (GeneID 32449), control promoter light, run 1, well b = 1.10e5
For “uninduced reporter light, run 1, well a”, CG14563 (GeneID 40435) is entered as 1640
Result of Pak (GeneID 44039) under “control promoter light, run 1, well b”: 48470
